mCherry data for seven compounds are collected here from the supplement of paper PMC8256030.

Several values for one entry are separate records, joined by “and”; a condition that tells them apart may be missing. Equal values may be shown once. The list shows a part of the results. This data set is noisy: repeats of one test often differ as much as different tests do.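 HEK293T cells were given each compound shortly before transfection with a reporter in which red mCherry is followed by the SARS-CoV-2 frameshift element and then GFP in the −1 frame, so GFP appears only after frameshifting.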

For the test, the system named is SARS-CoV-2 -1 PRF reporter mCherry-FSE-GFP(-1). The experiment in a line: mCherry (red) intensity as percent of control; higher = higher upstream reporter expression. Conditions: 10 µM; 24 h; HEK293T.
For `C[C@@](Cc1ccc(O)c(O)c1)(NN)C(=O)O` [carbidopa], the mCherry was 109% and 85.2%.

`CN(C(=O)C(Cl)Cl)c1ccc(OC(=O)c2ccco2)cc1` had a mCherry of 84.9%.

Regarding `CC(=O)O[C@@]12CO[C@@H]1C[C@H](O)[C@@]1(C)C(=O)[C@H](O)C3=C(C)[C@@H](OC(=O)[C@H](O)[C@@H](NC(=O)OC(C)(C)C)c4ccccc4)C[C@@](O)([C@@H](OC(=O)c4ccccc4)[C@H]21)C3(C)C`, the mCherry stood at 121%.

Regarding `CSc1ccc2c(c1)C(N1CCN(C)CC1)Cc1ccccc1S2` (configuration not stated) [metitepine], the mCherry was determined as 110%.

Compound `Cc1cnc(C(=O)NCCc2ccc(S(=O)(=O)NC(=O)NC3CCCCC3)cc2)cn1` [Glipizide] yielded a mCherry of 111%.

The compound `CCN(CC)CCOC(=O)C(c1ccccc1)c1ccccc1` [adiphenine] yielded a mCherry of 90.6%.

`CCCCC(C(=O)O)C(=O)N(Nc1ccccc1)c1ccccc1` (configuration not stated) [bumadizone]: the mCherry turned out to be 79.4%.
